This note sets out measurements from paper PMC1764644.

Protein sequences, listed by entry. Tags and fused reporters are not part of them. Lines headed by an entry give the natural chain unless they say otherwise; changes in a name come on top. Residues count along the entry.
UniProt P25942, residues 21-193: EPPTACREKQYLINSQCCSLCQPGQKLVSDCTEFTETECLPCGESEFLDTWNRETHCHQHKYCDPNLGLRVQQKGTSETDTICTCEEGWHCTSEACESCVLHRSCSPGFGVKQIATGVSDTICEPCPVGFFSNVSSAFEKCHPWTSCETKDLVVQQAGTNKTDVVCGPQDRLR
UniProt P25445, residues 26-173: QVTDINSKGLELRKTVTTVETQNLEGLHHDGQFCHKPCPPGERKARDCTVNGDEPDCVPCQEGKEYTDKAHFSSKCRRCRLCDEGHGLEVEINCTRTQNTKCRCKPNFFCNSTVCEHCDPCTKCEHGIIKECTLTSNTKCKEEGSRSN
UniProt P04003: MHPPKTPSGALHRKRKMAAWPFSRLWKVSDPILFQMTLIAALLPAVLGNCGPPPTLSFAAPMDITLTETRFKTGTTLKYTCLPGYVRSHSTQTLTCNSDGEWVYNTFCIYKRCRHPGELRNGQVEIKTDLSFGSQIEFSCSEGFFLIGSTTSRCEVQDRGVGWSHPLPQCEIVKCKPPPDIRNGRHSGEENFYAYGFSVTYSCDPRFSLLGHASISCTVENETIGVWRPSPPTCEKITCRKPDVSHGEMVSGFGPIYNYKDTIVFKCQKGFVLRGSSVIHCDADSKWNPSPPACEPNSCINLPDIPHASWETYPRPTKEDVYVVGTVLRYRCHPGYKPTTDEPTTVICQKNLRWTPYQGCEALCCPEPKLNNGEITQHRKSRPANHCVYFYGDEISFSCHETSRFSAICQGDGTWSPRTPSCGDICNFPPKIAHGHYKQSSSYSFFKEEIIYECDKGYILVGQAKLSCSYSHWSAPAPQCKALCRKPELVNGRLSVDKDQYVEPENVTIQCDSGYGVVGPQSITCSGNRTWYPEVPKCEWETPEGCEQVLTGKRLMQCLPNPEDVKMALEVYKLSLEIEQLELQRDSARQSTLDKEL
UniProt P48023, residues 130-281: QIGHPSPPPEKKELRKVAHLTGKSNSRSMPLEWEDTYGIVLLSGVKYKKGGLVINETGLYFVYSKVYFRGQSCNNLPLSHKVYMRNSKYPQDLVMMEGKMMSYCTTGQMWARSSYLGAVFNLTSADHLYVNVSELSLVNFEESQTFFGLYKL
UniProt P29965, residues 113-261: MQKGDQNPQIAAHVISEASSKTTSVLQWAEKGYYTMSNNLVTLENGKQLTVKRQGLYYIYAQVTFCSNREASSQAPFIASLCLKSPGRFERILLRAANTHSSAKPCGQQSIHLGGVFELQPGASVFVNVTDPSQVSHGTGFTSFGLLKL

Assay [1] deals with human CD40 murine-IgG fusion protein (human) (UniProt P25942). The assay can be described thus: SPR; Biacore 3000, CM5 chip; CD40 fusion protein immobilised at 2000, 500 and 100 ru on three channels; C4BP titrated from 40 µg/ml to 400 µg/ml; sCD154 flowed before and after the titration; 25°C, HBS-EP; both purified.
Assay [2] has the same target. As to the kind of experiment: SPR; Biacore 3000, CM5 chip; human CD40 murine-IgG fusion protein immobilised (10 µg/ml); sCD154 10 µg/ml, C4BP 40 µg/ml or a mixture of both flowed in various orders; 25°C, HBS-EP (10 mM HEPES pH 7.4, 150 mM NaCl, 0.005% surfactant P20); both purified.
Another assay concerns the target CD95 (Fas) (UniProt P25445). The assay can be described thus: SPR; data not shown; CD95 or CD178 immobilised, C4BP flowed under the same conditions; soluble CD178 on immobilised CD95 with C4BP; both purified.
Assay [3] concerns the target C4b binding protein (C4BP), purified native (UniProt P04003). The assay can be described thus: SPR; Biacore 3000, CM5 chip; C4BP (20 µg/ml) immobilised at pH 4.2, 5.0 and 5.6; sCD154 0.31 to 10 µg/ml at 2 µl/min for 120 minutes, 60 minutes dissociation, or sCD40 flowed; 25°C, HBS-EP; both purified.
The target is the same in assay [4]. As to the kind of experiment: SEC; C4BP and sCD154 (5 ug:1 ug) incubated at 37°C for 1 hour, Sephacryl-300, 0.1 M NaPO4 pH 7.4, 0.15 M NaCl; 100 µl fractions assayed for CD154 by ELISA; both purified.

Results are given in words; binding and its absence hold for the method and conditions named. Some entries that bind do so weakly or less than the wild type.

“C4b binding protein (C4BP), purified native (from UniProt P04003 49-597; P20851 18-252) (complex)”: the figures for the binding entry in assay [1] and in assay [2] were “no binding (tested: 400 µg/ml)” and “no binding (tested: 40 µg/ml)”, respectively.

Turning to “CD178 (Fas Ligand) (from UniProt P48023 130-281)”, the binding entry with CD95 (Fas) is given as “binds”.

Consider “recombinant soluble CD40 ligand (sCD154) (from UniProt P29965 113-261)”, for which the binding entry in assay [3] and in assay [4] was “binds” in each case.

In the case of “soluble CD40 (sCD40) (from UniProt P25942 21-193) (receptor)”, in assay [3], the binding result is reported as “no binding”.
